In patent publication US20260102487A1:
No constants are given. Whether binding was seen depends on the method and setting. Binding can be weak; no strength is given.

Tests used:
[1] = target: cynomolgus IL-2Rβγ receptor on cynomolgus T-cells (PBMCs) (cynomolgus); assay: flow cytometry on cynomolgus T-cells
[2] = target: cynomolgus IL-2Rβγ receptor on cynomolgus T-cells (PBMCs) (cynomolgus); assay: flow cytometry cell binding on cynomolgus CD8+ T-cells (PBMC), gMFI as fold over secondary antibody only

| Binder | binding [1] | binding [2] |
| --- | --- | --- |
| BsAb-1 (IL2RB_F09C**IL2RG_F16A) (bispecific antibody, human IgG4, V domains shown, not shown: small tags and cut ends) V domain 1: QVQLQESGPGLVKPSGTLSLTCAVSGGSISSSDWWSWVRQPPGKGLEWIGEIDHSGSTNYNPSLMSRVTISVDKSKNQFSLKLSSVTAADTAVYFCGRGSWELSDAFDIRGQGTLVTVSS V domain 2: QVQLVESGGGLVKPGGSLRLSCAASGFTFSDYYMSWIRQAPGKGLEWVSSISSSGDTIYYADSVQGRFTLSRDNAENSLFLQMNSLRAEDTAVYYCARGDAVSITGDYRGQGTLVTVSS | binds | binds |
| BsAb-2 (IL2RB_F09G**IL2RG_F16B) (bispecific antibody, human IgG4, V domains shown, not shown: small tags and cut ends) V domain 1: QVQLQESGPGLVKSSETLSLTCTVSGGSISSSDWWSWVRQPPGKGLEWIGEIDHSGSTNYNPSLMSRVTISVDKSKNQFSLKLSSVTAADTAVYFCARGSWELTDAFDIRGQGTLVTVSS V domain 2: QVQLVESGGGLVKPGGSLRLSCAASGFTFSDYYMSWIRQAPGKGLEWVSYISSSGSTIYYADSVKGRFTISRDNAKNSLYLQMNSLRAEDTAVYYCARGDAVSITGDYRGQGTLVTVSS | binds | binds |
| BsAb-3 (IL2RB_F09G**IL2RG_F16C) (bispecific antibody, human IgG4, V domains shown, not shown: small tags and cut ends) V domain 1: QVQLQESGPGLVKSSETLSLTCTVSGGSISSSDWWSWVRQPPGKGLEWIGEIDHSGSTNYNPSLMSRVTISVDKSKNQFSLKLSSVTAADTAVYFCARGSWELTDAFDIRGQGTLVTVSS V domain 2: QVQLVESGGGLVKPGGSLRLSCAASGFTFNDYYMSWIRQAPGKGLEWVSHISSSGSTIYYADSVKGRFTVSRDNANNSLYLQMHSLRAEDTAVYYCARGDAVSITGDYRGQGTLVTVSS | binds | binds |
| BsAb-4 (IL2RB_F09G**IL2RG_F18A) (bispecific antibody, human IgG4, V domains shown, not shown: small tags and cut ends) V domain 1: QVQLQESGPGLVKSSETLSLTCTVSGGSISSSDWWSWVRQPPGKGLEWIGEIDHSGSTNYNPSLMSRVTISVDKSKNQFSLKLSSVTAADTAVYFCARGSWELTDAFDIRGQGTLVTVSS V domain 2: QVQLVESGGDLVKPGGSLRLSCAASGFTFSDYYMSWLRQAPGKELEWVSHISSSGTTTYYADSVEGRFTITRDNAKNSLYLQMNSLRAEDTAVYYCARGAAVAPGFDSRGQGTLVTVSS | binds | binds |
| BsAb-5 (IL2RB_F09K**IL2RG_F16B) (bispecific antibody, human IgG4, V domains shown, not shown: small tags and cut ends) V domain 1: QVQLQESSPGLVKPSETLSLTCTVSGGSISSSNWWSWVRQPPGKGLEWIGEISHSGSTNYNPSLKSRVTISVDKSKNQFSLRLSSVTAADTAVYFCGRGSWELTDAFDIRGQGTLVTVSS V domain 2: QVQLVESGGGLVKPGGSLRLSCAASGFTFSDYYMSWIRQAPGKGLEWVSYISSSGSTIYYADSVKGRFTISRDNAKNSLYLQMNSLRAEDTAVYYCARGDAVSITGDYRGQGTLVTVSS | binds | binds |
| BsAb-6 (IL2RB_F18E**IL2RG_F16A) (bispecific antibody, human IgG4, V domains shown, not shown: small tags and cut ends) V domain 1: QVQLVESGGGVVQPGRSLRLSCAASGFTFSSYGMHWVRQAPGKEREWVAVISYDGSNKYYTDSVKGRFTISRDNSKNTLYLEMNSLRAEDTAVYYCARDLDYDVLTGDPVGGFDIWGQGTLVTVSS V domain 2: QVQLVESGGGLVKPGGSLRLSCAASGFTFSDYYMSWIRQAPGKGLEWVSSISSSGDTIYYADSVQGRFTLSRDNAENSLFLQMNSLRAEDTAVYYCARGDAVSITGDYRGQGTLVTVSS | binds | binds |
